Paper PMC4694698
These are yes or no findings as the source states them, for the method shown. Binding seen in cells or lysates may run through a third protein. A result given as binding can be weak or reduced; the word gives no strength.

Target: T1, VE-cadherin (Vascular Endothelial-cadherin) (human (endogenous in HUVEC)) (UniProt P33151)
T1 sequence: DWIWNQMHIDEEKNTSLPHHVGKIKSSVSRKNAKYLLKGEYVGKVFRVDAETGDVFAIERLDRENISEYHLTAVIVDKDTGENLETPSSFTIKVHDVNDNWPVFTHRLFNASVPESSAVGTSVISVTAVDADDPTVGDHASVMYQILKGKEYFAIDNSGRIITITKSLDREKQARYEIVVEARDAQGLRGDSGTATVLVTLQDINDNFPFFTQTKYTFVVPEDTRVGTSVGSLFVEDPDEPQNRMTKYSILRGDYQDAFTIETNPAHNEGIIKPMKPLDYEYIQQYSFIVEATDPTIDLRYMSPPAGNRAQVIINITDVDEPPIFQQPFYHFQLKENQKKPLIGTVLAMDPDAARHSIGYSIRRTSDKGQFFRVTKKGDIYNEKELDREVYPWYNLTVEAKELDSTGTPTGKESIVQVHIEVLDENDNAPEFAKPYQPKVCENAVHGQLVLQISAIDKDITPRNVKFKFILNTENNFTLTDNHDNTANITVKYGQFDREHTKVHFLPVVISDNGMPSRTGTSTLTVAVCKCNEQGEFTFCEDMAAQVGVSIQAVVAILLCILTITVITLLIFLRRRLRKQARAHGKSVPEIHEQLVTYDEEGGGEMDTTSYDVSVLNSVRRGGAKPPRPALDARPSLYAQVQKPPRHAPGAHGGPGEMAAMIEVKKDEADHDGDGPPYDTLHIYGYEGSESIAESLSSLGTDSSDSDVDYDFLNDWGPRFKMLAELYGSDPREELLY
Assay: co-IP; HUVEC treated with PAI-039 (25 μM) or solvent (DMSO 0.1%) for four hours; NP-40 lysis buffer (25 mM Tris, 100 mM NaCl, 10 mM MgCl2, 10% glycerol, 1% Nonidet P-40, pH 7.4); lysate incubated with 2 μg mouse monoclonal VE-cadherin antibody and protein G-sepharose at 4°C; five washes; western blot

Substance: α-catenin (human (endogenous in HUVEC))
- binding: binds
